Experimental findings from publication doi:10.1101/2025.10.30.685566 are described below.

Chains of the proteins cited; added tags and fusions are not shown.
UniProt Q5T5P2: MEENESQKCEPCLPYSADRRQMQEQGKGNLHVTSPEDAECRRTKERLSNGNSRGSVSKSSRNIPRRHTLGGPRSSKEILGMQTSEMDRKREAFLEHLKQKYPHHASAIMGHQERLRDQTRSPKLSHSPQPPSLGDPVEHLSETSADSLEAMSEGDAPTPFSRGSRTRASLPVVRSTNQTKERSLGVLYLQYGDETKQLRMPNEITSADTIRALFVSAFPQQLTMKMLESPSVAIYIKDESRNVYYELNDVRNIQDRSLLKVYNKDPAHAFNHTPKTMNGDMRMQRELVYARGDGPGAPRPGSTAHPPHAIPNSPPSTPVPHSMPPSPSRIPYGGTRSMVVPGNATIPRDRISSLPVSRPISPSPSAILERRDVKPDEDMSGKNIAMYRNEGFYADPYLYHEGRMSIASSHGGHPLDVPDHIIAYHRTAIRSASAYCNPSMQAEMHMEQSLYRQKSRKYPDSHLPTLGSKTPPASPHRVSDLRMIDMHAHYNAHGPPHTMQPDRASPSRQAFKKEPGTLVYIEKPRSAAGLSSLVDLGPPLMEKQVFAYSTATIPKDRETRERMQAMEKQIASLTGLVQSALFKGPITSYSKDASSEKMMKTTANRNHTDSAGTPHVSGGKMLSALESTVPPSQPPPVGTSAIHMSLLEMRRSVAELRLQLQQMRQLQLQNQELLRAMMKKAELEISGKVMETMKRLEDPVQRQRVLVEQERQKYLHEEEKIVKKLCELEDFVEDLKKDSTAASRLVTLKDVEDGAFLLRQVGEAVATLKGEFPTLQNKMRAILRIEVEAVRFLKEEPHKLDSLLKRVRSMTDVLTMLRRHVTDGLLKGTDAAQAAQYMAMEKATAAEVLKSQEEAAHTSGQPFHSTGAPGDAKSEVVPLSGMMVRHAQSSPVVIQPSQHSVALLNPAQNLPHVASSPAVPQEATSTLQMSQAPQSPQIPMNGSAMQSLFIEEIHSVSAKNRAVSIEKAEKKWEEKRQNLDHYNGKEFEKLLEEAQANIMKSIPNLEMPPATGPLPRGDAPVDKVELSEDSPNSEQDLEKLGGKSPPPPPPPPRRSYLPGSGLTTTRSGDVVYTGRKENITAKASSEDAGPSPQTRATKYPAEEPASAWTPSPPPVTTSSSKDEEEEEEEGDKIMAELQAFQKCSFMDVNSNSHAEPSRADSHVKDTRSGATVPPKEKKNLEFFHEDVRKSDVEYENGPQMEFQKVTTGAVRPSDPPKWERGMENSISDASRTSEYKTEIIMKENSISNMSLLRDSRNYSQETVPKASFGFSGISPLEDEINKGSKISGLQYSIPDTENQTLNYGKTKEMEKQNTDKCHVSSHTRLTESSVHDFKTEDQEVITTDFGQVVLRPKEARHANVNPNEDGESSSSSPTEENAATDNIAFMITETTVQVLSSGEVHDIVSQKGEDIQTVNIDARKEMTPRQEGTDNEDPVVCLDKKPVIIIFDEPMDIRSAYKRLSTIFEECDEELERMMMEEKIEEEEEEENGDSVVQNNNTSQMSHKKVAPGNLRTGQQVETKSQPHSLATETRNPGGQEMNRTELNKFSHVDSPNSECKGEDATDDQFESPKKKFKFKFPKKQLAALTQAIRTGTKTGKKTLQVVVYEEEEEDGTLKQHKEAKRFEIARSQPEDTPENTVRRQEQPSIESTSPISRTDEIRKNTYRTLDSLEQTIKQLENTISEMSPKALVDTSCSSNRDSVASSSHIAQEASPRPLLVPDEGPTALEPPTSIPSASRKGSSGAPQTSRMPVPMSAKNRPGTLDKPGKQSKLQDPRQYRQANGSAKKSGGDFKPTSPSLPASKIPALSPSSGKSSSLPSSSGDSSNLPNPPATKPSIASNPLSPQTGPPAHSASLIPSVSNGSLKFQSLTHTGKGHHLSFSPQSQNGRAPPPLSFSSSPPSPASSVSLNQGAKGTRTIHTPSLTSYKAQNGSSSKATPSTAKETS
UniProt Q15691: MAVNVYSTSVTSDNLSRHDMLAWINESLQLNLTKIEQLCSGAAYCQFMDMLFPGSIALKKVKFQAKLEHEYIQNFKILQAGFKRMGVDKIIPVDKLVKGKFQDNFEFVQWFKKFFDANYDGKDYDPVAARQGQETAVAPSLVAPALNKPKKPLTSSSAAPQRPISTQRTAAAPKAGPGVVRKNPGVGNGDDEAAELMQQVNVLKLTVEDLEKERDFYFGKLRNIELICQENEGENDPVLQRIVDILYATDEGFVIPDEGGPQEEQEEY

Results are given in words; binding and its absence hold for the method and conditions named. In cells and extracts the contact can be indirect. Some results given as binding are weak or reduced against the parent protein; the word gives no strength. For some of these results: Tags and fused reporters may be left off the sequences shown.

Holding throughout (assay): co-IP
One assay addresses Flag-KIAA1217 (human) (UniProt Q5T5P2).
In a further assay the target is EB1-GFP (UniProt Q15691).
The target in the next assay is T1, CYLD-Flag (UniProt Q9NQC7).
T1 sequence: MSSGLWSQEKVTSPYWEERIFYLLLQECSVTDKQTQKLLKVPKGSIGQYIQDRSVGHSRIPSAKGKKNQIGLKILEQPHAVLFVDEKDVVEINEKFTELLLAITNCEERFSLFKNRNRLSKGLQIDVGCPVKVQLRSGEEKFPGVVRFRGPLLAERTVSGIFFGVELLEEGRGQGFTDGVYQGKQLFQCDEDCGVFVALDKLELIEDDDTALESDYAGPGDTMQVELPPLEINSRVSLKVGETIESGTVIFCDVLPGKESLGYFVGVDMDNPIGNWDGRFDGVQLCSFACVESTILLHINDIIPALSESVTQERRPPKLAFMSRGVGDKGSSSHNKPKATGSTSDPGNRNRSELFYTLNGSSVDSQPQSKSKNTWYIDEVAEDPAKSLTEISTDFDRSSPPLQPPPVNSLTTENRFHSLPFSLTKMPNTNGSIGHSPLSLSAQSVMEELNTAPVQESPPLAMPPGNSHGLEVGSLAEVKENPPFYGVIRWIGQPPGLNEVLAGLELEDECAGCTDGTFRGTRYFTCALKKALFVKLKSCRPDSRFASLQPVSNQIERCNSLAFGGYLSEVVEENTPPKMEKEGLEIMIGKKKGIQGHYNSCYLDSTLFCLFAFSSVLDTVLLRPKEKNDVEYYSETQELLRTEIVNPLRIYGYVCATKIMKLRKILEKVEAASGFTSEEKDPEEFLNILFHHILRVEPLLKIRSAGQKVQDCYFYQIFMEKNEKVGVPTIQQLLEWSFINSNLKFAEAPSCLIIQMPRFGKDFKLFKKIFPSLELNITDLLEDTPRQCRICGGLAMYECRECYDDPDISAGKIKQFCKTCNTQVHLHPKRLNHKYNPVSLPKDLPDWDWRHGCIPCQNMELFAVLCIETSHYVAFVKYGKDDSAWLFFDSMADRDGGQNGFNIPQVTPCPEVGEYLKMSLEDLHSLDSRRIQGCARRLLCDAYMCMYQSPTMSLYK

A further assay addresses T2, p140Cap-Flag (UniProt Q9C0H9).
T2 sequence: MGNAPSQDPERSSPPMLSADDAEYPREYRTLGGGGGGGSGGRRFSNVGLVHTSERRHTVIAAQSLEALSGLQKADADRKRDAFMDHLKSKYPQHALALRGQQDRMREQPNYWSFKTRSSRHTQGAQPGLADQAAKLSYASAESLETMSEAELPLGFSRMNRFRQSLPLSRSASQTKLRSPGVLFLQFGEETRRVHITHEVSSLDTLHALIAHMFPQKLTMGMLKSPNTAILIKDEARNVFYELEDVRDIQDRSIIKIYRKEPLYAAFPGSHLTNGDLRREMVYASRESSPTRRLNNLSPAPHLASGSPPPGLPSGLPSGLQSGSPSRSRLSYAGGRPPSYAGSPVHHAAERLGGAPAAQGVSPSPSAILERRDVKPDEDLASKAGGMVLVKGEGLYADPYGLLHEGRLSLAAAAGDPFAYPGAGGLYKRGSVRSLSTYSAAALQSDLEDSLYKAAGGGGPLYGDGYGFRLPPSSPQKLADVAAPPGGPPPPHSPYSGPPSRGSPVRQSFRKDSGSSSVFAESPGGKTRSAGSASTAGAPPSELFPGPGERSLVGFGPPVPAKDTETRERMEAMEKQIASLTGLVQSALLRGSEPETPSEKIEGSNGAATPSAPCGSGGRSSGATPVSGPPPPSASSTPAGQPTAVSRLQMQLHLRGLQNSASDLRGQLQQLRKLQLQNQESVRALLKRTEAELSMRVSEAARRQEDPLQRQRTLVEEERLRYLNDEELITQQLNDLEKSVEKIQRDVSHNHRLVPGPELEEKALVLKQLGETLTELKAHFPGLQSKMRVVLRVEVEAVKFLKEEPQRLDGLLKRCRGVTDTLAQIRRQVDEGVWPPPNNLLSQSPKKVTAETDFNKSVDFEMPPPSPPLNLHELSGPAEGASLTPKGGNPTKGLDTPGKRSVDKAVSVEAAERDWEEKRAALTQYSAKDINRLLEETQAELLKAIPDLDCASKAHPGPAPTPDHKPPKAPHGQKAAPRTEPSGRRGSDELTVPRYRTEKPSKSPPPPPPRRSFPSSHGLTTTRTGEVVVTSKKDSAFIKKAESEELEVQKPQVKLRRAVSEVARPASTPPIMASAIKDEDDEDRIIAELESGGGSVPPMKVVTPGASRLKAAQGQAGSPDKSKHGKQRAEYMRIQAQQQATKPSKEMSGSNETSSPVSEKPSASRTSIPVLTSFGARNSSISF

Turning to EB1-GFP (from UniProt Q15691 1-268), the binding result in the assay with Flag-KIAA1217 (human) was “binds”.

As to “Flag-KIAA1217 (from UniProt Q5T5P2 1-1943)”, in the assay with EB1-GFP, the binding result is “binds”.

Regarding “GFP-KIAA1217 (from UniProt Q5T5P2 1-1943)”, the binding entry in the assay with CYLD-Flag and in the assay with p140Cap-Flag was “binds” throughout.
